PubChem BioAssay AID504804 – Drosophila RNAi Screening Center – 2011

Test: 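dsRNAs that improve Kc cell survival under doxorubicin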 (primary screen)
System: Drosophila Kc cells
Reagent: long dsRNA against Drosophila genes, 0.5 µg dsRNA per well
Timing: 96 h (48 h knock-down, then 48 h drug)
Challenge: doxorubicin 5 µg/ml for 48 h, added 48 h after dsRNA
Read-out: 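Viability measured as cellular ATP by luminescence after 48 h knock-down then 48 h doxorubicin at 5 µg/ml; unnormalised plate counts for each replicate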
Direction: raw ATP luminescence: higher = more viable cells, protection from doxorubicin
Hit rule: 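z-score of 2 or more over plate mean in both duplicates, retained only when retests and separate dsRNAs confirm the protection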
The deposit covers about 19,000 reagents; this is an unselected part of those that have a named target and a result. Of all reagents, 47 (0.25%) are marked active. 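Signals are raw, not normalised; exact z-scores behind calls not deposited; actives needed confirmation, so some wells reaching 2 SD are inactive.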 Unmarked entries are inactive. Reagents against one gene are numbered here. A plus sign joins genes that one reagent is predicted to hit. No sequences are given here.

With knock-down of vig (vasa intronic gene) #1, the record shows raw ATP luminescence, replicate 1 = 60823; raw ATP luminescence, replicate 2 = 77990.
vig (vasa intronic gene) #2 showed raw ATP luminescence, replicate 1 = 83450; raw ATP luminescence, replicate 2 = 71290.
Against Cyp6u1 (Cytochrome P450 6u1), the values are raw ATP luminescence, replicate 1 = 70750; raw ATP luminescence, replicate 2 = 54013.
Silencing of CG32111 (retired record) came out at: raw ATP luminescence, replicate 1 = 68863; raw ATP luminescence, replicate 2 = 73830.
With knock-down of CG17140 + CG17139 #1 the results were raw ATP luminescence, replicate 1 = 37447; raw ATP luminescence, replicate 2 = 46547.
CG17140 + CG17139 #2 scored raw ATP luminescence, replicate 1 = 45533; raw ATP luminescence, replicate 2 = 62783.
CG15922 scored raw ATP luminescence, replicate 1 = 69270; raw ATP luminescence, replicate 2 = 88580.
After knock-down of CG13747 the results were raw ATP luminescence, replicate 1 = 40107; raw ATP luminescence, replicate 2 = 72043.
CycB (Cyclin B) gave raw ATP luminescence, replicate 1 = 66450; raw ATP luminescence, replicate 2 = 53027.
After knock-down of Kr-h1 (Kruppel homolog 1) #1, the record shows raw ATP luminescence, replicate 1 = 2.44e5; raw ATP luminescence, replicate 2 = 2.51e5.
Silencing of Kr-h1 (Kruppel homolog 1) #2 came out at: raw ATP luminescence, replicate 1 = 78310; raw ATP luminescence, replicate 2 = 44173.
tai (taiman) #1 gave raw ATP luminescence, replicate 1 = 15677; raw ATP luminescence, replicate 2 = 30760.
After knock-down of tai (taiman) #2 the results were raw ATP luminescence, replicate 1 = 40933; raw ATP luminescence, replicate 2 = 87043.
For Cpr65Eb (Cuticular protein 65Eb) the deposit lists raw ATP luminescence, replicate 1 = 82973; raw ATP luminescence, replicate 2 = 83173.
After knock-down of Ccdc114 (Coiled-coil domain containing protein 114), the record shows raw ATP luminescence, replicate 1 = 1.08e5; raw ATP luminescence, replicate 2 = 61310.
CG31823 showed raw ATP luminescence, replicate 1 = 63650; raw ATP luminescence, replicate 2 = 63497.
For CG18294, the values are raw ATP luminescence, replicate 1 = 54220; raw ATP luminescence, replicate 2 = 70813.
Against ppk24 (pickpocket 24) the deposit lists raw ATP luminescence, replicate 1 = 55000; raw ATP luminescence, replicate 2 = 51960.

Sorted by “raw ATP luminescence, replicate 1” (high to low): some entries from above.
CG15922: raw ATP luminescence, replicate 1 = 69270; raw ATP luminescence, replicate 2 = 88580
CG13747: raw ATP luminescence, replicate 1 = 40107; raw ATP luminescence, replicate 2 = 72043

Continued.
For CG9184, the entry reads raw ATP luminescence, replicate 1 = 2.28e5; raw ATP luminescence, replicate 2 = 2.63e5.
PGRP-SA (Peptidoglycan recognition protein SA) gave raw ATP luminescence, replicate 1 = 3.32e5; raw ATP luminescence, replicate 2 = 3.02e5.
Nepl3 (Neprilysin-like 3) showed raw ATP luminescence, replicate 1 = 1.15e5; raw ATP luminescence, replicate 2 = 69870.
After knock-down of CG4465 the results were raw ATP luminescence, replicate 1 = 56160; raw ATP luminescence, replicate 2 = 72300.
CG3732 gave raw ATP luminescence, replicate 1 = 57873; raw ATP luminescence, replicate 2 = 82353.
Silencing of Sgf29 (SAGA-associated factor 29kDa) gave: raw ATP luminescence, replicate 1 = 72083; raw ATP luminescence, replicate 2 = 63893.
Silencing of ref(2)P (refractory to sigma P) came out at: raw ATP luminescence, replicate 1 = 63567; raw ATP luminescence, replicate 2 = 49887.
Against CG16824, the entry reads raw ATP luminescence, replicate 1 = 47460; raw ATP luminescence, replicate 2 = 62983.
Against dnk (deoxyribonucleoside kinase), the values are raw ATP luminescence, replicate 1 = 30330; raw ATP luminescence, replicate 2 = 31120.
Knock-down of ND6 (retired record) resulted in: raw ATP luminescence, replicate 1 = 2.42e5; raw ATP luminescence, replicate 2 = 2.35e5.
